We go through 2 molecules from article doi:10.1101/2021.12.15.472781.

The target of assay [1] is VIR3-FLAG in stably transformed Arabidopsis vir3-1/pUBQ::VIR3-FLAG seedlings (Arabidopsis). The assay is described as follows: co-IP.
Assay [2] addresses VIR3^H239Y-FLAG in stably transformed Arabidopsis vir3-1/pUBQ::VIR3^H239Y-FLAG seedlings (Arabidopsis). The assay is described as follows: co-IP.

These are yes or no findings as the source states them, for the method shown. Binding seen in cells or lysates may run through a third protein. Binding can be weak; no strength is given.

B1: tAPX (thylakoidal isoform of ascorbate peroxidase), endogenous in Arabidopsis seedlings (enzyme, UniProt Q42593 79-426)
chain: AASDAAQLISAKEDIKVLLRTKFCHPILVRLGWHDAGTYNKNIEEWPLRGGANGSLRFEAELKHAANAGLLNALKLIQPLKDKYPNISYADLFQLASATAIEEAGGPDIPMKYGRVDVVAPEQCPEEGRLPDAGPPSPADHLRDVFYRMGLDDKEIVALSGAHTLGRARPDRSGWGKPETKYTKTGPGEAGGQSWTVKWLKFDNSYFKDIKEKRDDDLLVLPTDAALFEDPSFKNYAEKYAEDVAAFFKDYAEAHAKLSNLGAKFDPPEGIVIENVPEKFVAAKYSTGKKELSDSMKKKIRAEYEAIGGSPDKPLPTNYFLNIIIAIGVLVLLSTLFGGNNNSDFSGF
For the molecule B1, the binding result in assay [1] and in assay [2] was “binds” in each case.

B2: GAPB (plastidial GAPDH isoform B), endogenous in Arabidopsis seedlings (enzyme, UniProt P25857 81-447)
chain: KLKVAINGFGRIGRNFLRCWHGRKDSPLEVVVLNDSGGVKNASHLLKYDSMLGTFKAEVKIVDNETISVDGKLIKVVSNRDPLKLPWAELGIDIVIEGTGVFVDGPGAGKHIQAGASKVIITAPAKGADIPTYVMGVNEQDYGHDVANIISNASCTTNCLAPFAKVLDEEFGIVKGTMTTTHSYTGDQRLLDASHRDLRRARAAALNIVPTSTGAAKAVSLVLPQLKGKLNGIALRVPTPNVSVVDLVINVEKKGLTAEDVNEAFRKAANGPMKGILDVCDAPLVSVDFRCSDVSTTIDSSLTMVMGDDMVKVVAWYDNEWGYSQRVVDLAHLVASKWPGAEAVGSGDPLEDFCKTNPADEECKVYD
As to B2, the binding result in assay [1] and in assay [2] was “binds” each time.
